Results as given in the supplement of paper PMC10849652.
The list shows a part of the results.

Amino acid sequences for entries named in this document (tags omitted). A change or cut given only in a name is not applied to a line headed by its entry.
UniProt Q9NPF5, whole entry, looked up: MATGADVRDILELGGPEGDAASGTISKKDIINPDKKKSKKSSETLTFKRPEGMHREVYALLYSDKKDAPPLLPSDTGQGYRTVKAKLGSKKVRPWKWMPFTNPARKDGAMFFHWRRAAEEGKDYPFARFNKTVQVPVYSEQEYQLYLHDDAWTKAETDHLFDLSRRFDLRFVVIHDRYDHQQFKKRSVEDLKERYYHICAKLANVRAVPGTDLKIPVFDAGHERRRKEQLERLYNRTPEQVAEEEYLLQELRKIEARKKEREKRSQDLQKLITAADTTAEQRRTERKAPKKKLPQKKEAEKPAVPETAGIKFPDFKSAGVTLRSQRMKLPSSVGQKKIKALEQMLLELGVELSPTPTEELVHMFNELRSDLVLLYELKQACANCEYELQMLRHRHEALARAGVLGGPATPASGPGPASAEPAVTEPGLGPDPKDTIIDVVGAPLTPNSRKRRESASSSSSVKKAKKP
UniProt O60884: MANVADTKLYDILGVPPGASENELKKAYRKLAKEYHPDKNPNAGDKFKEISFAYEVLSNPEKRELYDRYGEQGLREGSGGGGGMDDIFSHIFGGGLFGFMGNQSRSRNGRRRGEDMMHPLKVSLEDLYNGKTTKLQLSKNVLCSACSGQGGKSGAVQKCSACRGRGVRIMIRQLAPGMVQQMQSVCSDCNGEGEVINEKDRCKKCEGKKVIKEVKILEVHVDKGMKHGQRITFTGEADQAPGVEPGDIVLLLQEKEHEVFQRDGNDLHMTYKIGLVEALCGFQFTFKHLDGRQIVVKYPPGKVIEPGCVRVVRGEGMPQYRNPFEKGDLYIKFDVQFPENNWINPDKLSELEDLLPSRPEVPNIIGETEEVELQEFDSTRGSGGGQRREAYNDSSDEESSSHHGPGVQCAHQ
UniProt Q96HP0: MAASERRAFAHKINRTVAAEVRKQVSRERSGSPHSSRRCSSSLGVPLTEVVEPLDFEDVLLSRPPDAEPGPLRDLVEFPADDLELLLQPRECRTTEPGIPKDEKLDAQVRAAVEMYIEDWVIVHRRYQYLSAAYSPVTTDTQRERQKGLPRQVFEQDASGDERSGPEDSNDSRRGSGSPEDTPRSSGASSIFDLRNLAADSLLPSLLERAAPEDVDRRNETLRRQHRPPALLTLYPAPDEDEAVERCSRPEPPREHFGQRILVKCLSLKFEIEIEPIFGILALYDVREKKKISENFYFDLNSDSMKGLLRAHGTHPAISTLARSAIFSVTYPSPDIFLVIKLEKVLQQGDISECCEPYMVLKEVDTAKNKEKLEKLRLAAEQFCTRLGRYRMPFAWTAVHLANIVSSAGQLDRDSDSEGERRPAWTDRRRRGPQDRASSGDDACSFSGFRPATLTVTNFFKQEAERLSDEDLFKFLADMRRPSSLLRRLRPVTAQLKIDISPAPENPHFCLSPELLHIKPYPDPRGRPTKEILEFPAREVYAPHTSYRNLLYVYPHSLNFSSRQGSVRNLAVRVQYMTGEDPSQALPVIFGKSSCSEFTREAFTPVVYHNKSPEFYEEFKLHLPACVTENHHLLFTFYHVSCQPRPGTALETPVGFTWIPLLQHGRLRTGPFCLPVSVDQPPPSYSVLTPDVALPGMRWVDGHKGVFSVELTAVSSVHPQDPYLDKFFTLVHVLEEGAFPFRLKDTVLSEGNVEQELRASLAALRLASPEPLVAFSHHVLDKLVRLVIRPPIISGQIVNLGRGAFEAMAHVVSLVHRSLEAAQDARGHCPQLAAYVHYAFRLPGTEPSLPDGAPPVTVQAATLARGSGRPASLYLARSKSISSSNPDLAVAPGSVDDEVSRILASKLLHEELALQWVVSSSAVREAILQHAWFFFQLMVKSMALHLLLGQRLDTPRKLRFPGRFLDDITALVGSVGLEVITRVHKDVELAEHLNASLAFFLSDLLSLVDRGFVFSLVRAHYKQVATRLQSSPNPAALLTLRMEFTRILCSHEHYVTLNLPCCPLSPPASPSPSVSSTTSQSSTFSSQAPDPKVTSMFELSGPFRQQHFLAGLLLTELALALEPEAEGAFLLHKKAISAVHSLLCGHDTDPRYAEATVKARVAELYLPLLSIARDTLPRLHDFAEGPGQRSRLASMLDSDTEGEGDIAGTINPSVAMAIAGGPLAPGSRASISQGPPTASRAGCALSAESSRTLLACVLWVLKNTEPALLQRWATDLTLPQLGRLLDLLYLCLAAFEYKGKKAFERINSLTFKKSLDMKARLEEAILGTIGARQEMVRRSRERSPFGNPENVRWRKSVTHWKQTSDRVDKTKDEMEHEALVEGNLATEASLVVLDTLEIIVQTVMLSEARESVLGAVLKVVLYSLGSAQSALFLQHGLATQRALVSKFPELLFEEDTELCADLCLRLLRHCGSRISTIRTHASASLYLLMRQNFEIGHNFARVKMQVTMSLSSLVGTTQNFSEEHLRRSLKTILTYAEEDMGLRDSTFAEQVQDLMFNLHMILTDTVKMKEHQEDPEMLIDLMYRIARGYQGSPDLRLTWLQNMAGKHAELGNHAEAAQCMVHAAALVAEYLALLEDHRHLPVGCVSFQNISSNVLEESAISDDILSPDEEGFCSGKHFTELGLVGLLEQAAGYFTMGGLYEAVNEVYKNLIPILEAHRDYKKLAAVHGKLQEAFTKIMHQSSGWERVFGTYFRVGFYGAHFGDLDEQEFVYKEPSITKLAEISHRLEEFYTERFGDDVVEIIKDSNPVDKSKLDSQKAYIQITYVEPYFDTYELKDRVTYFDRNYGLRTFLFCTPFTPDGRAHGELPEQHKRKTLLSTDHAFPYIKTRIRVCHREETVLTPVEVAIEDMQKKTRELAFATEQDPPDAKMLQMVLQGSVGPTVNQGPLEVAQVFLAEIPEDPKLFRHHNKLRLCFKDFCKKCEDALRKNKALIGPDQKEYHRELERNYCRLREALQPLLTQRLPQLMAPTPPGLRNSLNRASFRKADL
UniProt Q9Y394: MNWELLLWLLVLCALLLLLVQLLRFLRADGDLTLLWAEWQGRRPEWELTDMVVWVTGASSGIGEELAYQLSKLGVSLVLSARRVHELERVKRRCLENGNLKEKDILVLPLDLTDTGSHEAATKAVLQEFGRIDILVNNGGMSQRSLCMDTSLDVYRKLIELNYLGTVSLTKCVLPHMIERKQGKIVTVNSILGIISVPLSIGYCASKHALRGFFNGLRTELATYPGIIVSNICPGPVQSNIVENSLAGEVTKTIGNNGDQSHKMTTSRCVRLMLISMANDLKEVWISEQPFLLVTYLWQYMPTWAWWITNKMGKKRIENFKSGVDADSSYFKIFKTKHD
UniProt Q99766: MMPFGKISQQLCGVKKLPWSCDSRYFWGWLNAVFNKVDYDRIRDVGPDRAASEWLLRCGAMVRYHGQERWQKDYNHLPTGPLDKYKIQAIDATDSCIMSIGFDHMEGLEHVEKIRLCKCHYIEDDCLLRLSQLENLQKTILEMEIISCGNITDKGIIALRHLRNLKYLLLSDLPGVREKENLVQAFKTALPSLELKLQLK
UniProt Q5T7M9: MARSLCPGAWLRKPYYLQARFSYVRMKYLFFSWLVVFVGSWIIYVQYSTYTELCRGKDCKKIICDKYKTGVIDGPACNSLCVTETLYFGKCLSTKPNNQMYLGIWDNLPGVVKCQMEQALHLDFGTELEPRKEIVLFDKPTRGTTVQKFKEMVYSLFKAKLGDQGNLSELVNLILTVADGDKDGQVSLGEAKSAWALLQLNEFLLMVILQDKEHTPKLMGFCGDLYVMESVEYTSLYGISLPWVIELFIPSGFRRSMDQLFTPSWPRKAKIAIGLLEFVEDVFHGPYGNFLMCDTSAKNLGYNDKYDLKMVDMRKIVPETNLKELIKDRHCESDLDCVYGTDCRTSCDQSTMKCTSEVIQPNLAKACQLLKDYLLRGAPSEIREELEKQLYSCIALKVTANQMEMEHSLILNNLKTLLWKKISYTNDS
UniProt Q9BY27: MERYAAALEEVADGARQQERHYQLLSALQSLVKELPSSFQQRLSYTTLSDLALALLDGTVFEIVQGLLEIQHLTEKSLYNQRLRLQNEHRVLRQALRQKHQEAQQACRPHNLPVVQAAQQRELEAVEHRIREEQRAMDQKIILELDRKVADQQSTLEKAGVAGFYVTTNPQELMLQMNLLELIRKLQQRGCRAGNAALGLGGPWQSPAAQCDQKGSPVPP
UniProt Q9NYP3: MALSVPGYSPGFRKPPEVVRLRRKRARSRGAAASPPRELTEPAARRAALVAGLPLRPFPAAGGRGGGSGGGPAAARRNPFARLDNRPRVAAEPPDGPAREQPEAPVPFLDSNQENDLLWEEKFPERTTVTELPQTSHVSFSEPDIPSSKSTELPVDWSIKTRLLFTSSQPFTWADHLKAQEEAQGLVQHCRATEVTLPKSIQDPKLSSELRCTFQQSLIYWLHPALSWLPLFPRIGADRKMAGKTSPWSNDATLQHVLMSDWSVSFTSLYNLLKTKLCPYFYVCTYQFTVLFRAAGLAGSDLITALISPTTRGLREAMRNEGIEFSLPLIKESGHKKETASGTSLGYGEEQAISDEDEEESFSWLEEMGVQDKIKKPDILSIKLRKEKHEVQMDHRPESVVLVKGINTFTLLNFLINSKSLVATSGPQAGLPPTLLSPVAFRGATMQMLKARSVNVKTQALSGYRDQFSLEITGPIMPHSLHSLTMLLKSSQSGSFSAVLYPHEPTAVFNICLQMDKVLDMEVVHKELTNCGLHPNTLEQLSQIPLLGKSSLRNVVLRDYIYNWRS
UniProt Q9H147: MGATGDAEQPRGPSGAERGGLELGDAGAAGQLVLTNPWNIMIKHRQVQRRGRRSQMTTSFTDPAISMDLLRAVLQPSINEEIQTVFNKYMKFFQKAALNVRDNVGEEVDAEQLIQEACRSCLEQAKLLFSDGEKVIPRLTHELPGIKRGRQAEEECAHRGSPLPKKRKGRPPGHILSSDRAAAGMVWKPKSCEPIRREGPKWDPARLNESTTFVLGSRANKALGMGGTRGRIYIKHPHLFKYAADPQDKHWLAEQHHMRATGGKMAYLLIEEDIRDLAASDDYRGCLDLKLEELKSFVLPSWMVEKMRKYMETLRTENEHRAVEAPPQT
UniProt Q9Y2G8: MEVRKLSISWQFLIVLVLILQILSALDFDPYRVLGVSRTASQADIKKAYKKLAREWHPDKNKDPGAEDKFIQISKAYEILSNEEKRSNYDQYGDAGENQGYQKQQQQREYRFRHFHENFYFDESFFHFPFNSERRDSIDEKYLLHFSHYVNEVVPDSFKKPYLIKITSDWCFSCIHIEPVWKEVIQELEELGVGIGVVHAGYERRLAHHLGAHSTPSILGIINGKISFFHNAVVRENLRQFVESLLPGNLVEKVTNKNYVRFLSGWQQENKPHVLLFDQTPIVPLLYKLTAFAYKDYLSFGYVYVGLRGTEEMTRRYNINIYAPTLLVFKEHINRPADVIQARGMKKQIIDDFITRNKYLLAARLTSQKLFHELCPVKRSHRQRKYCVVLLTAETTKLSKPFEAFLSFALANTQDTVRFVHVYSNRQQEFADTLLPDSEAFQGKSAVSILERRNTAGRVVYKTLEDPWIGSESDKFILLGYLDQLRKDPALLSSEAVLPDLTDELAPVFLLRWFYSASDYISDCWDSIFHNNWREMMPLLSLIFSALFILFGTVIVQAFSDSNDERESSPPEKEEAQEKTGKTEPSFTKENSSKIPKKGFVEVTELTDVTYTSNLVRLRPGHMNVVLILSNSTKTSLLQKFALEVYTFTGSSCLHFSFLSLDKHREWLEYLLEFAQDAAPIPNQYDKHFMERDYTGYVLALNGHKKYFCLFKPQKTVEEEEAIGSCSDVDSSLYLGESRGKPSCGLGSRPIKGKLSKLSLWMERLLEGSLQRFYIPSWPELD
UniProt Q6Y2X3: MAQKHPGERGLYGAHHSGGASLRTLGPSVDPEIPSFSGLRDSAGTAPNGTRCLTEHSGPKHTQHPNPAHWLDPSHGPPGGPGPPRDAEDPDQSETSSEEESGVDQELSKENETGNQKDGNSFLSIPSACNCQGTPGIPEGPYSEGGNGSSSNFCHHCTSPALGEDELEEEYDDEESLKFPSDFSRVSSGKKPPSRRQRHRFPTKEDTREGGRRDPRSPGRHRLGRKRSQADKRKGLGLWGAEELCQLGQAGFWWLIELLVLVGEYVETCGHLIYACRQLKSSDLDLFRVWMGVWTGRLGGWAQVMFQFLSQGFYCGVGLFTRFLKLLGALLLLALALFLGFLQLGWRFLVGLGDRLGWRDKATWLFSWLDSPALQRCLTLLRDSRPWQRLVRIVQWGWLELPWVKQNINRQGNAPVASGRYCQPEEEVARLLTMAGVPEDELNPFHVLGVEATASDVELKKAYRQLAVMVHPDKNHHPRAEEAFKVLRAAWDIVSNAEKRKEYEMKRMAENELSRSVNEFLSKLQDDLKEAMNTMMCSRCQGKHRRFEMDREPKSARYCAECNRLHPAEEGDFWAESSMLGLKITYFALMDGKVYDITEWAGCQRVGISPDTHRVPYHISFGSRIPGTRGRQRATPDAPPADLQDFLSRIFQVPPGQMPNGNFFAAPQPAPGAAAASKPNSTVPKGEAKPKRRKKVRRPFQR

Legend:
Test in all cases: log2 fold change, soluble protein after heating vs DMSO (PISA); higher = thermal stabilisation; K562 lysate, 10 uM; active = over 0.2 and 3.5 SD of the protein, either way, in both replicates (recomputed)
vorinostat = compound: O=C(CCCCCCC(=O)Nc1ccccc1)NO [vorinostat]
In short: (§1)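 Quantification was by TMTpro 16plex LC-MS/MS with equalised channel sums, applied to the supernatant after 21,000xg for 90 min. Samples were crude K562 extract at 1 mg/mL protein in PBS pH 7.4 with 1 mM MgCl2, treated with 10 μM compound for 30 min, heated for 3 min across 48°C-58°C, pooled and brought to 0.5% NP-40 at 4°C. Values are log-two fold changes in thermal stability relative to solvent controls, from duplicates.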

silmitasertib = compound: O=C(O)c1ccc2c(c1)nc(Nc1cccc(Cl)c1)c1ccncc12 [silmitasertib]
In short: as §1

[1] = compound: NCC(=O)Nc1ccc(-n2nc(C(F)(F)F)cc2-c2ccc3c(ccc4ccccc43)c2)cc1
In short: as §1

[2] = compound: O=C1NC(=O)C(c2cnc3ccccn23)=C1c1cn2c3c(cc(F)cc13)CN(C(=O)N1CCCCC1)CC2
In short: as §1

entospletinib = compound: c1cn2cc(-c3ccc4cn[nH]c4c3)nc(Nc3ccc(N4CCOCC4)cc3)c2n1 [entospletinib]
In short: as §1

Target | log2 fold change (vorinostat) | log2 fold change (silmitasertib) | log2 fold change [1] | log2 fold change [2] | log2 fold change (entospletinib)
DNMT3A (UniProt Q9Y6K1) | inactive: -0.187 | inactive: 0.148 | – | – | –
DMAP1 (UniProt Q9NPF5) | inactive: -0.192 | inactive: 0.036 | inactive: -0.042 | inactive: 0 | inactive: 0.03
DGKQ (UniProt P52824) | inactive: -0.249 | inactive: 0.11 | inactive: 0.104 | – | inactive: -0.135
DHTKD1 (UniProt Q96HY7) | inactive: -0.097 | inactive: 0.171 | – | inactive: -0.041 | –
DNAJA3 isoform 2 (UniProt Q96EY1) | inactive: 0.128 | inactive: -0.005 | inactive: 0.084 | – | inactive: 0.077
DGLUCY isoform 2 (UniProt Q7Z3D6) | – | – | – | inactive: -0.116 | –
DNAL1 (UniProt Q4LDG9) | inactive: 0.064 | inactive: 0.023 | inactive: 0.02 | inactive: 0.097 | inactive: -0.079
DGCR2 (UniProt P98153) | inactive: 0.209 | inactive: 0.082 | inactive: 0.05 | – | inactive: -0.007
DNAJA2 (UniProt O60884) | inactive: -0.003 | inactive: 0.006 | inactive: 0.008 | inactive: 0.006 | inactive: 0
DOCK6 (UniProt Q96HP0) | inactive: -0.096 | inactive: -0.352 | – | – | –
DNM1 (UniProt Q05193) | inactive: -0.211 | inactive: 0.066 | – | inactive: 0.063 | –
DHRS7 (UniProt Q9Y394) | inactive: 0.083 | inactive: 0.015 | inactive: 0.027 | inactive: -0.018 | inactive: 0.025
DOK2 (UniProt O60496) | inactive: -0.459 | inactive: 0.001 | – | – | –
DHRS13 (UniProt Q6UX07) | active: 1.11 | inactive: 0.059 | – | inactive: -0.001 | –
DNM2 isoform 4 (UniProt P50570) | active: -0.826 | inactive: 0.047 | – | inactive: -0.014 | inactive: -0.02
DMAC2L (UniProt Q99766) | inactive: -0.174 | inactive: 0.037 | inactive: -0.023 | inactive: -0.038 | inactive: 0.022
DNAJB9 (UniProt Q9UBS3) | inactive: 0.078 | inactive: -0.078 | – | inactive: 0.009 | –
DNMT3B (UniProt Q9UBC3) | – | – | inactive: -0.068 | – | inactive: 0.151
DOP1A (UniProt Q5JWR5) | – | – | – | inactive: -0.049 | inactive: 0.049
DNMT1 (UniProt P26358) | – | – | – | inactive: 0.028 | –

Target | log2 fold change (vorinostat) | log2 fold change (silmitasertib) | log2 fold change [1] | log2 fold change [2] | log2 fold change (entospletinib)
DNAJC19, A0A2R8Y839 | – | – | – | inactive: 0.072 | –
DGKE (UniProt P52429) | inactive: -0.092 | inactive: 0.189 | inactive: -0.388 | – | inactive: -0.189
DNAJB1 (UniProt M0R128) | inactive: 0 | inactive: 0.203 | – | – | –
DNPEP (UniProt C9JBE1) | – | – | inactive: 0.179 | – | inactive: -0.088
DIPK1A (UniProt Q5T7M9) | – | – | – | – | inactive: -0.015
DPAGT1 (UniProt Q9H3H5) | inactive: -0.033 | inactive: 0.044 | – | inactive: 0.031 | –
DGCR6L (UniProt Q9BY27) | – | – | – | inactive: 0.096 | –
DONSON (UniProt Q9NYP3) | active: -0.401 | inactive: -0.123 | – | inactive: 0.032 | –
DLC1 (UniProt Q96QB1) | – | – | – | inactive: 0.161 | inactive: -0.033
DNTTIP1 (UniProt Q9H147) | inactive: -0.26 | inactive: 0.043 | inactive: -0.021 | – | inactive: -0.009
DOP1B (UniProt Q9Y3R5) | – | – | inactive: 0.014 | inactive: -0.06 | –
DMD isoform 14 (UniProt P11532) | – | – | – | inactive: 0.05 | –
DNAJC16 (UniProt Q9Y2G8) | – | – | – | inactive: 0.043 | –
DGKA (UniProt P23743) | – | – | inactive: 0.015 | – | inactive: 0.054
DNAJB14 (UniProt H7C494) | – | – | – | inactive: -0.183 | –
DLX2 (UniProt Q07687) | inactive: -0.216 | inactive: -0.092 | – | – | –
DNAJC14 (UniProt Q6Y2X3) | – | – | – | – | inactive: -0.017
DNLZ (UniProt Q5SXM8) | inactive: 0.061 | inactive: 0.144 | – | – | –
DNPEP (UniProt B9ZVU2) | inactive: 0.265 | inactive: 0.023 | – | inactive: 0.037 | inactive: -0.042
DMBT1 isoform 6 (UniProt Q9UGM3) | – | – | inactive: -0.165 | – | inactive: 0.069

Single records, as listed above. Order of values: log2 fold change (vorinostat)	log2 fold change (silmitasertib)	log2 fold change [1]	log2 fold change [2]	log2 fold change (entospletinib)
DOP1A (UniProt Q5JWR5) is listed with –	–	–	inactive: -0.049	inactive: 0.049
DNAJB1 (UniProt M0R128) is listed with inactive: 0	inactive: 0.203	–	–	–
DNMT3A (UniProt Q9Y6K1) is listed with inactive: -0.187	inactive: 0.148	–	–	–
